Test system: sim3-GFP
Experiment: Quantitative LC-MS/MS of sim3-GFP interactome (SINC components)
Design: species or system Arabidopsis thaliana
Settings: protein enrichment in the sim3-GFP interactome (SINC components), SA-treated samples versus mock

B1: AT1G22400 (protein, UniProt Q9SK82 1-489, looked up)
UDP-glycosyltransferase 85A1: MGSQIIHNSQKPHVVCVPYPAQGHINPMMRVAKLLHARGFYVTFVNTVYNHNRFLRSRGSNALDGLPSFRFESIADGLPETDMDATQDITALCESTMKNCLAPFRELLQRINAGDNVPPVSCIVSDGCMSFTLDVAEELGVPEVLFWTTSGCAFLAYLHFYLFIEKGLCPLKDESYLTKEYLEDTVIDFIPTMKNVKLKDIPSFIRTTNPDDVMISFALRETERAKRASAIILNTFDDLEHDVVHAMQSILPPVYSVGPLHLLANREIEEGSEIGMMSSNLWKEEMECLDWLDTKTQNSVIYINFGSITVLSVKQLVEFAWGLAGSGKEFLWVIRPDLVAGEEAMVPPDFLMETKDRSMLASWCPQEKVLSHPAIGGFLTHCGWNSILESLSCGVPMVCWPFFADQQMNCKFCCDEWDVGIEIGGDVKREEVEAVVRELMDGEKGKKMREKAVEWQRLAEKATEHKLGSSVMNFETVVSKFLLGQKSQD
With B1 the “Normalized Fold Change: SA vs Mock” value was 4.863.

B2: AT2G43820 (protein, UniProt O22822 1-449, looked up)
UDP-glycosyltransferase 74F2: MEHKRGHVLAVPYPTQGHITPFRQFCKRLHFKGLKTTLALTTFVFNSINPDLSGPISIATISDGYDHGGFETADSIDDYLKDFKTSGSKTIADIIQKHQTSDNPITCIVYDAFLPWALDVAREFGLVATPFFTQPCAVNYVYYLSYINNGSLQLPIEELPFLELQDLPSFFSVSGSYPAYFEMVLQQFINFEKADFVLVNSFQELELHENELWSKACPVLTIGPTIPSIYLDQRIKSDTGYDLNLFESKDDSFCINWLDTRPQGSVVYVAFGSMAQLTNVQMEELASAVSNFSFLWVVRSSEEEKLPSGFLETVNKEKSLVLKWSPQLQVLSNKAIGCFLTHCGWNSTMEALTFGVPMVAMPQWTDQPMNAKYIQDVWKAGVRVKTEKESGIAKREEIEFSIKEVMEGERSKEMKKNVKKWRDLAVKSLNEGGSTDTNIDTFVSRVQSK
With B2 the “Normalized Fold Change: SA vs Mock” value was 8.986.

B3: AT5G40760 (protein, UniProt Q9FJI5 1-515, looked up)
Glucose-6-phosphate …: MGSGQWHVEKRSTFRNDSFVREYGIVPETGCLSIIVLGASGDLAKKKTFPALFNLYRQGFLNPDEVHIFGYARTKISDEELRDRIRGYLVDEKNAEQAEALSKFLQLIKYVSGPYDAEEGFQRLDKAISEHEISKNSTEGSSRRLFYLALPPSVYPSVCKMIKTCCMNKSDLGGWTRIVVEKPFGKDLESAEQLSSQIGELFDESQIYRIDHYLGKELVQNMLVLRFANRFFLPLWNRDNIENVQIVFREDFGTEGRGGYFDEYGIIRDIIQNHLLQVLCLVAMEKPISLKPEHIRDEKVKVLQSVVPISDDEVVLGQYEGYRDDDTVPNDSNTPTFATTILRIHNERWEGVPFILKAGKALNSRKAEIRIQFKDVPGDIFRCQKQGRNEFVIRLQPSEAMYMKLTVKQPGLDMNTVQSELDLSYGQRYQGVAIPEAYERLILDTIKGDQQHFVRRDELKVAWEIFTPLLHRIDKGEVKSIPYKPGSRGPKEADQLLEKAGYLQTHGYIWIPPTL
B3 was tested, and the “Normalized Fold Change: SA vs Mock” value was 4.099.

B4: AT2G21470 (protein, UniProt Q9SJT1 2-700, looked up)
SUMO-activating enzyme …: ATQQQQSAIKGAKVLMVGAGGIGCELLKTLALSGFEDIHIIDMDTIEVSNLNRQFLFRRSHVGQSKAKVARDAVLRFRPNINIRSYHANVKNPEFDVDFFKQFDVVLNGLDNLDARRHVNRLCLAADVPLVESGTTGFLGQVTVHIKGKTECYECQTKPAPKTYPVCTITSTPTKFVHCIVWAKDLLFAKLFGDKNQDNDLNVRSNNSASSSKETEDVFERSEDEDIEQYGRKIYDHVFGSNIEAALSNEETWKNRRRPRPIYSKDVLPESLTQQNGSTQNCSVTDGDLMVSAMPSLGLKNPQELWGLTQNSLVFIEALKLFFAKRKKEIGHLTFDKDDQLAVEFVTAAANIRAESFGIPLHSLFEAKGIAGNIVHAVATTNAIIAGLIVIEAIKVLKKDVDKFRMTYCLEHPSKKLLLMPIEPYEPNPACYVCSETPLVLEINTRKSKLRDLVDKIVKTKLGMNLPLIMHGNSLLYEVGDDLDDIMVANYNANLEKYLSELPSPILNGSILTVEDLQQELSCKINVKHRFFSEILNPVLNSVWFLIILPSTFPKLFHFTESRNQDGLSLDIILGFSNVTIRRVLTMFETGRRLTHPLLILFCHREEFDEEKEPEGMVLSGWTPSPATNGESASTSNNENPVDVTESSSGSEPASKKRRLSETEASNHKKETENVESEDDDIMEVENPMMVSKKKIRVE
B4 was tested, and the “Normalized Fold Change: SA vs Mock” value was 5.817.

B5: AT3G07990 (protein, UniProt Q9SFB5 21-459, looked up)
Serine carboxypeptidase-like …: APSSYVEEQLRDRISNLPGQPSNVDFRQYSGYVTVHEERGRALFYWLVESPLARDPKSRPLVLWLNGGPGCSSVAYGAAEEIGPFRVGSDGKTLHSKLYAWNKLANLLFLESPAGVGFSYSNTTSDLYTTGDQRTAEDSYIFLVNWFERFPQYKHREFYIVGESYAGHFVPQLSKLVHERNKGFKNPAINLKGFMVGNAVTDDYHDYIGTFEYWWNHGLISDSTYHQLKTACYSVSSQHPSMQCMVALRNAELEQGNIDPYSIFTKPCNSTVALKRFLKGRYPWMSRAYDPCTERYSNVYFNRLDVQKALHANVTRLSYPWKACSDIVGSYWDDSPLSMLPIYKELITAGLKIWVFSGDTDAVVPITATRYSVDALKLATITNWYPWYDHGKVGGWSQVYKGLTLVTVAGAGHEVPLHRPRQAFILFRSFLESKPMPMT
In the case of B5, the “Normalized Fold Change: SA vs Mock” value is reported as 5807.184.

B6: AT3G58040 (protein, UniProt Q9M2P4 1-308, looked up)
E3 ubiquitin-protein ligase …: MAPGGSALKEVMESNSTGMDYEVKTAKVEVNNNKPTKPGSAGIGKYGIHSNNGVYELLECPVCTNLMYPPIHQCPNGHTLCSNCKLRVQNTCPTCRYELGNIRCLALEKVAESLEVPCRYQNLGCHDIFPYYSKLKHEQHCRFRPYTCPYAGSECSVTGDIPTLVVHLKDDHKVDMHDGCTFNHRYVKSNPHEVENATWMLTVFNCFGRQFCLHFEAFQLGMAPVYMAFLRFMGDENEAKKFSYSLEVGAHGRKLTWQGIPRSIRDSHRKVRDSQDGLIIPRNLALYFSGGDRQELKLRVTGRIWKEE
For B6, the “Normalized Fold Change: SA vs Mock” value was 2.989.

B7: AT1G54100 (protein, UniProt Q9SYG7 1-508, looked up)
Aldehyde dehydrogenase family …: MGSANNEYEFLSEIGLTSHNLGSYVAGKWQANGPLVSTLNPANNQPIAQVVEASLEDYEQGLKACEEAAKIWMQVTAPKRGDIVRQIGDALRSKLDYLGRLLSLEMGKILAEGIGEVQEVIDMCDFAVGLSRQLNGSVIPSERPNHMMLEMWNPLGIVGVITAFNFPCAVLGWNACIALVCGNCVVWKGAPTTPLITIAMTKLVAEVLEKNNLPGAIFTAMCGGAEIGEAIAKDTRIPLVSFTGSSRVGSMVQQTVNARSGKTLLELSGNNAIIVMDDADIQLAARSVLFAAVGTAGQRCTTCRRLLLHESVYDKVLEQLLTSYKQVKIGNPLEKGTLLGPLHTPESKKNFEKGIEVIKSQGGKILTGGKAVEGEGNFVEPTIIEISADAAVVKEELFAPVLYVLKFKSFGEAVAINNSVPQGLSSSIFTRNPENIFRWIGPLGSDCGIVNVNIPTNGAEIGGAFGGEKATGGGREAGSDSWKQYMRRSTCTINYGNELPLAQGINFG
B7 was tested, and the “Normalized Fold Change: SA vs Mock” value was 2.006.

B8: AT1G63460 (protein, UniProt Q8LBU2 1-167, looked up)
Probable glutathione …: MATKEPESVYELSIEDAKGNNLALSQYKDKVLLIVNVASKCGMTNSNYTELNELYNRYKDKGLEILAFPCNQFGDEEPGTNDQITDFVCTRFKSEFPIFNKIEVNGENASPLYKFLKKGKWGIFGDDIQWNFAKFLVDKNGQAVQRYYPTTSPLTLEHDIKNLLNIS
For B8, the “Normalized Fold Change: SA vs Mock” value was 19.55.

B9: AT2G41740 (protein, UniProt O81644 1-976, looked up)
Villin-2: MSTKVLDPAFQGAGQKPGTEIWRIENFEAVPVPKSEHGKFYMGDTYIVLQTTQNKGGAYLFDIHFWIGKDTSQDEAGTAAVKTVELDAVLGGRAVQHREIQGHESDKFLSYFKPCIIPLEGGVASGFKTVEEEVFETRLYTCKGKRAIRLKQVPFARSSLNHDDVFILDTEEKIYQFNGANSNIQERAKALEVVQYLKDKYHEGTCDVAIVDDGKLDTESDSGAFWVLFGGFAPIGRKVANDDDIVPESTPPKLYCITDGKMEPIDGDLSKSMLENTKCYLLDCGAEIYIWVGRVTQVDERKAASQSAEEFLASENRPKATHVTRVIQGYESHSFKSNFDSWPSGSATPGNEEGRGKVAALLKQQGVGLKGIAKSAPVNEDIPPLLESGGKLEVWYVNGKVKTPLPKEDIGKLYSGDCYLVLYTYHSGERKDEYFLSCWFGKKSIPEDQDTAIRLANTMSNSLKGRPVQGRIYEGKEPPQFVALFQPMVVLKGGLSSGYKSSMGESESTDETYTPESIALVQVSGTGVHNNKAVQVETVATSLNSYECFLLQSGTSMFLWHGNQSTHEQLELATKVAEFLKPGITLKHAKEGTESSTFWFALGGKQNFTSKKASSETIRDPHLFSFAFNRGKFQVEEIYNFAQDDLLTEDIYFLDTHAEVFVWVGQCVEPKEKQTVFEIGQKYIDLAGSLEGLHPKVPIYKINEGNEPCFFTTYFSWDATKAIVQGNSFQKKASLLFGTHHVVEDKSNGGNQGLRQRAEALAALNSAFNSSSNRPAYSSQDRLNESHDGPRQRAEALAALSSAFNSSSSSTKSPPPPRPVGTSQASQRAAAVAALSQVLVAENKKSPDTSPTRRSTSSNPADDIPLTEAKDEEEASEVAGLEAKEEEEVSPAADETEAKQETEEQGDSEIQPSGATFTYEQLRAKSENPVTGIDFKRREAYLSEEEFQSVFGIEKEAFNNLPRWKQDLLKKKFDLF
With B9 the “Normalized Fold Change: SA vs Mock” value was 3.543.

B10: AT1G76680 (protein, UniProt Q8LAH7 1-372, looked up)
12-oxophytodienoate reductase …: MENGEAKQSVPLLTPYKMGRFNLSHRVVLAPLTRQRSYGNVPQPHAAIYYSQRTTPGGFLITEATGVSDTAQGYQDTPGIWTKEHVEAWKPIVDAVHAKGGIFFCQIWHVGRVSNSGFQPNGKAPISCSDKPLMPQIRSNGIDEALFTPPRRLGIEEIPGIVNDFRLAARNAMEAGFDGVEIHGANGYLIDQFMKDTVNDRTDEYGGSLQNRCKFPLEIVDAVAKEIGPDRVGIRLSPFADYMESGDTNPGALGLYMAESLNKYGILYCHVIEARMKTMGEVHACPHTLMPMRKAFKGTFISAGGFTREDGNEAVSKGRTDLVAYGRWFLANPDLPKRFQVDAPLNKYDRPTFYTSDPVVGYTDYPFLESTA
For B10, the “Normalized Fold Change: SA vs Mock” value was 4111.7295.

B11: AT5G24520 (protein)
chain: MDNSAPDSLSRSETAVTYDSPYPLYAMAFSSLRSSSGHRIAVGSFLEDYNNRIDILSFDSDSMTVKPLPNLSFEHPYPPTKLMFSPPSLRRPSSGDLLASSGDFLRLWEINEDSSTVEPISVLNNSKTSEFCAPLTSFDWNDVEPKRLGTCSIDTTCTIWDIEKSVVETQLIAHDKEVHDIAWGEARVFASVSADGSVRIFDLRDKEHSTIIYESPQPDTPLLRLAWNKQDLRYMATILMDSNKVVILDIRSPTMPVAELERHQASVNAIAWAPQSCKHICSGGDDTQALIWELPTVAGPNGIDPMSVYSAGSEINQLQWSSSQPDWIGIAFANKMQLLRV
B11 was tested, and the “Normalized Fold Change: SA vs Mock” value was 3.342.

B12: AT5G05000 (protein, UniProt Q38906 2-313, looked up)
Translocase of chloroplast …: AALQTLREWIGIQQFPPATQSKLLEILGKYKEEDVSSLTVLVMGKGGVGKSSTVNSVIGEKAAAVSTFQSEGLRPTLVSRTRSGFTLNIIDTPGLIEGGYVNDQAINIIKRFLLNMTIDVLLYVDRLDVYRVDDLDRQVVGAITDAFGKEIWKKSALVLTHAQFSPPDGLNYNHFVSKRSNALLKVIQTGAQLKKQDLQGFSIPVILVENSGRCHKNESDEKILPCGTSWIPNLFNKITEISFNGNKAIHVDKKLVEGPNPNERGKKLIPLMFAFQYLLVMKPLVRAIKSDVSRESKPAWELRDSGLASRRS
B12 was tested, and the “Normalized Fold Change: SA vs Mock” value was 9.761.

Reference: patent publication US20230227838A1, “ENHANCED CELL SURVIVAL AGAINST BIOTIC AND ABIOTIC STRESSES THROUGH SALICYLICK ACID-INDUCED NPR1 CONDENSATES” (priority 2020, published 2023)
